Results: patent publication US20070243132A1, “Transdermal delivery of pharmaceutical agents” (priority 2005, published 2007)
For at least one compound, name, drawing or mass did not settle the structure.

Tested on: Carrageenan-induced inflammation in the rear right footpad
Test: Carrageenan-induced footpad inflammation, foot thickness
Format: in vivo
Details: C57/BI6 mice, microemulsions of Example 13, topical on shaved belly, FIG. 6

Compound: COc1cc(CCC(=O)CC(=O)CCc2ccc(O)c(OC)c2)ccc1O [tetrahydrocurcumin]
- level of inflammation in the rear right foot-pad vs untreated animals: significantly lower level of inflammation
